Some results were stated once for a whole list of compounds, not compound by compound.
System: CD8+ T cell clone 2F2
Experiment: CD8+ T cell clone activation assay, NY-ESO-1 153-180 constructs, autologous LCL as APC
Format: cell-based, human
Conditions: 100 nM, +/− exogenous P3C; LCL as APC (FIG. 4)

Substance	T cell activation
143 (LQQLSLLMWITQCFLPVFLAQPPSGQRR; C-terminal acid) [compound 143]	50-100%
144 (SKKKKLQQLSLLMWITQCFLPVFLAQPPSGQRR; C-terminal acid) [compound 144]	50-100%

Reference: patent US10576144B2, “Amino acid and peptide conjugates and conjugation process” (AUCKLAND UNISERVICES LIMITED, priority 2014, dated 2020)
